# Assay results as given in PubChem BioAssay AID493014 (National Center for Advancing Translational Sciences (NCATS), 2011).
# Several values for one entry are separate records, joined by “and”; a condition that tells them apart may be missing. Equal entries are not always repeated. The list shows a part of the results. Further columns of the screen follow, without active or inactive calls. Most of these compounds were active or inconclusive in the main read-out, so they are no random draw. Words in brackets tell the shape of the fitted curve; partial curves, single points and poor fits give uncertain potencies.
# Test: qHTS Assay to Find Inhibitors of Chronic Active B-Cell Receptor Signaling
# Conditions: ABC-DLBCL IkBa-CBG/CBR reporter, luminescence ratio (green luciferase fused to IkBa over red control in TMD8 lymphoma cells), 4 h
# Procedure, shortened: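 TMD8 ABC-DLBCL cells carrying doxycycline-inducible green luciferase fused to IkappaBalpha plus unfused red luciferase were exposed to compounds (up to 46 uM) for 4 hrs at 37C. Activity came from the overlap-corrected green/red luminescence ratio.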
# [1] = measured here: CBR red luminescence, cell number
# [2] = measured here: IkBa-CBG green luminescence
SMILES,AC50 [1],AC50 [2]
C=CCn1c(O)c(N=NC(=S)Nc2cccc(C)c2)c2ccccc21,"1.84 µM [rising, full curve, poor fit]",–
Cc1csc(NC(=O)COCC(=O)O)c1-c1nc2ccccc2s1,"35.5 µM [rising, single point]",–
O=c1[nH]c(/C(=N\O)c2ccccc2)no1,"5.17 µM [falling, partial curve]","29.1 µM [falling, partial curve, poor fit]"
Cc1cccc(C(=O)NNC(=O)c2ccccc2O)c1,"2.51 µM [falling, full curve]",–
O=C(N/N=C/c1ccccn1)c1ccc(NC(=O)c2ccc(F)cc2)cc1,"2.51 µM [falling, partial curve, poor fit]",–
CCN1CC2([N+](=O)[O-])CC=C(OC)C([N+](=O)[O-])(C1)C2 (stereo not drawn),"23.1 µM [falling, single point]",–
Cc1cc(NC(=O)Nc2cccc(Cl)c2)n(-c2ccccn2)n1,–,"15.8 µM [rising, single point]"
Nc1nc(-c2ccccc2)c(C(=O)Nc2ccccc2)s1,"35.5 µM [falling, partial curve, poor fit]","7.94 µM [falling, partial curve, poor fit]"
Cn1c(O)c(N=NC(=O)c2ccccc2O)c2ccccc21,"0.891 µM [falling, full curve]",–
O=c1[nH]n(-c2ccc(Cl)cc2)c(=O)c(Cl)c1Cl,"20 µM [falling, single point]",–
Cc1ccc(C(=O)/C=C/c2ccc3c(c2)OCCO3)c(O)c1,"35.5 µM [falling, single point]",–
COCCCNC(=O)c1ccc2nc(Cc3ccc(OC)cc3)oc2c1,"12.6 µM [rising, partial curve]",–
NC(=O)Cn1nnc(-c2ccc(NC(=O)c3ccc(F)cc3)cc2)n1,"12.6 µM [falling, single point]",–
Cc1[nH]oc(=O)c1N=Nc1ccccc1,"29.1 µM [rising, single point]",–
COc1cc(-c2nc(C(=O)NCC3CCCO3)cc3c2[nH]c2ccccc23)cc(OC)c1OC (stereo not drawn),"12.6 µM [rising, partial curve]","15.8 µM [falling, single point]"
O=C1C(Cl)=C(N2CCCCC2)C(=O)N1Cc1ccccc1,"2.31 µM [rising, full curve]",–
CCOC(=O)Nc1oc2ccccc2c(=O)c1CN1CCOCC1,"0.631 µM [rising, full curve]",–
CCN(CC)C(=O)C(Oc1ccc(S(=O)(=O)N2CCCC2)cc1[N+](=O)[O-])c1ccccc1 (stereo not drawn),"2.51 µM [falling, partial curve, poor fit]",–
COc1ccc(C(C)(C)C)cc1NC(=O)c1ccc2ncsc2c1,"22.4 µM [falling, single point]",–
Cc1nc2ccc(C(=O)OCC(=O)N(C)c3ccccc3)cc2nc1C,"0.082 µM [falling, full curve, poor fit]",–

# Full records, quoted from the list.
# O=C(N/N=C/c1ccccn1)c1ccc(NC(=O)c2ccc(F)cc2)cc1 is listed with AC50 [1]: 2.51 µM [falling, partial curve, poor fit]
# COCCCNC(=O)c1ccc2nc(Cc3ccc(OC)cc3)oc2c1 is listed with AC50 [1]: 12.6 µM [rising, partial curve]

# The list continues:

SMILES,AC50 [1],AC50 [2]
CCN1C(=O)C(=O)N(CC(=O)c2cc(C)n(C3CC3)c2C)C1=O,"20.6 µM [falling, partial curve]",–
COc1c(O)cc2oc(-c3ccc(O)cc3)cc(=O)c2c1O,"35.5 µM [falling, single point]",–
CNCCCC12CCC(c3ccccc31)c1ccccc12,"15.8 µM [falling, partial curve, poor fit] and 11.2 µM [falling, single point] and 14.6 µM [falling, partial curve, poor fit]",–
CC(=O)c1cccc(NC(=S)NC(=O)c2ccccc2Br)c1,"13 µM [falling, partial curve, poor fit]",–
COc1ccc(OC)c(S(=O)(=O)n2ccnc2C)c1,"0.164 µM [rising, full curve, poor fit]",–
COCCNC(=O)c1ccc2c3n(nc2c1)-c1ccc(C)cc1CO3,"14.1 µM [falling, single point]",–
O=C(/C=C/c1ccccc1)Nc1cc(S(=O)(=O)N2CCOCC2)ccc1N1CCOCC1,"18.4 µM [rising, single point]",–
CC(C)(CNC(=S)NCCc1ccccc1)CNC(=S)NCCc1ccccc1,"29.1 µM [falling, single point]",–
COc1cc(C=NNc2ccc(S(=O)(=O)Nc3ccccc3C(=O)O)cc2[N+](=O)[O-])ccc1O,"29.1 µM [rising, single point]","16.4 µM [falling, single point]"
Oc1ccccc1-c1cc(-c2ccccc2)n[nH]1,"16.4 µM [falling, single point]",–
Oc1ccc(-c2csc(-c3cccnc3)n2)c(O)c1,"35.5 µM [falling, single point]",–
[O-]/C(=C(\C(=S)Nc1ccccc1F)[n+]1ccccc1)c1ccc(-c2ccccc2)cc1,"7.08 µM [falling, partial curve, poor fit]",–
Cc1ccccc1S(=O)(=O)N1[C@@H](c2cccc(Cl)c2)C(C(=O)O)=CC[C@H]1c1ccc(Cl)cc1,"10.3 µM [falling, partial curve, poor fit]",–
CCOC(=O)c1c(/N=C/C2=C(O)CC(C)(C)CC2=O)sc(C(C)=O)c1C,"11.2 µM [rising, partial curve, poor fit]",–
CCCNC(=O)C1CCN(S(=O)(=O)c2ccc(-c3nn[nH]n3)cc2)CC1,"1.64 µM [falling, partial curve, poor fit]",–
COCCNC(=O)C(c1ccc(C)o1)N(Cc1cccs1)C(=O)c1snc(C(N)=O)c1N (stereo not drawn),"1.16 µM [falling, full curve]",–
Cc1ccc(-c2ccc(=O)n(Cc3ccc(F)cc3)n2)cc1,"17.8 µM [falling, partial curve]",–
COC(=O)c1ccc(N=NN2CCCCC2)cc1,"0.562 µM [rising, full curve, poor fit]",–
O=C1NN(c2ccccc2)C(=O)/C1=C/c1ccc(-c2ccc(C(=O)O)cc2)o1,"11.2 µM [falling, partial curve]",–
